In this assay the target is T1, Squid (Drosophila (endogenous in larvae, Oregon-R-P2 wild type strain)) (UniProt Q08473).
T1 sequence: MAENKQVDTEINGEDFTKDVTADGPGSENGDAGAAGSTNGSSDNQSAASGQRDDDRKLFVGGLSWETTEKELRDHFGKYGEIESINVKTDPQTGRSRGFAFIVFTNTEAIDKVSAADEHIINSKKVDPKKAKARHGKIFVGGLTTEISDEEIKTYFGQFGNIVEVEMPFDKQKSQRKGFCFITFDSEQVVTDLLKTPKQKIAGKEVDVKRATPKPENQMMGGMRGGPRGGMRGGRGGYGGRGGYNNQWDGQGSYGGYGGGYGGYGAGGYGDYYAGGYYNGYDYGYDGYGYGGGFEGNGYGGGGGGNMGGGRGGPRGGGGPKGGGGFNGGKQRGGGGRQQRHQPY
Kind of assay: co-IP; 100 ug of nuclear protein extract; anti-Squid antibody (1B11) on Dynabeads protein A, IgG anti-mouse as control; incubation over night; washes in 10 mM Hepes-KOH pH 8, 100 mM NaCl, 0.05 tween 20, 10% Glycerol; blot with anti-Squid and anti-Hrb87F.

This passage reports binding results from publication PMC4490448.

Results are given in words; binding and its absence hold for the method and conditions named. Binding seen in cells or lysates may run through a third protein. Some results given as binding are weak or reduced against the parent protein; the word gives no strength.

B1: Hrb87F (protein, UniProt P48810 1-385)
chain: MAEQNDSNGNYDDGEEITEPEQLRKLFIGGLDYRTTDDGLKAHFEKWGNIVDVVVMKDPKTKRSRGFGFITYSQSYMIDNAQNARPHKIDGRTVEPKRAVPRQEIDSPNAGATVKKLFVGGLRDDHDEECLREYFKDFGQIVSVNIVSDKDTGKKRGFAFIEFDDYDPVDKIILQKTHSIKNKTLDVKKAIAKQDMDRQGGGGGRGGPRAGGRGGQGDRGQGGGGWGGQNRQNGGGNWGGAGGGGGFGNSGGNFGGGQGGGSGGWNQQGGSGGGPWNNQGGGNGGWNGGGGGGYGGGNSNGSWGGNGGGGGGGGGFGNEYQQSYGGGPQRNSNFGNNRPAPYSQGGGGGGFNKGNQGGGQGFAGNNYNTGGGGQGGNMGGGNRRY
As to B1, the binding entry is reported as “binds”.
